Assay results taken from paper PMC8549169.
Results are given in words; binding and its absence hold for the method and conditions named. In cells and extracts the contact can be indirect. Some results given as binding are weak or reduced against the parent protein; the word gives no strength.

Chains of the proteins cited; added tags and fusions are not shown. Lines headed by an entry give the natural chain unless they say otherwise; changes in a name come on top. Residues count along the entry.
UniProt O15550: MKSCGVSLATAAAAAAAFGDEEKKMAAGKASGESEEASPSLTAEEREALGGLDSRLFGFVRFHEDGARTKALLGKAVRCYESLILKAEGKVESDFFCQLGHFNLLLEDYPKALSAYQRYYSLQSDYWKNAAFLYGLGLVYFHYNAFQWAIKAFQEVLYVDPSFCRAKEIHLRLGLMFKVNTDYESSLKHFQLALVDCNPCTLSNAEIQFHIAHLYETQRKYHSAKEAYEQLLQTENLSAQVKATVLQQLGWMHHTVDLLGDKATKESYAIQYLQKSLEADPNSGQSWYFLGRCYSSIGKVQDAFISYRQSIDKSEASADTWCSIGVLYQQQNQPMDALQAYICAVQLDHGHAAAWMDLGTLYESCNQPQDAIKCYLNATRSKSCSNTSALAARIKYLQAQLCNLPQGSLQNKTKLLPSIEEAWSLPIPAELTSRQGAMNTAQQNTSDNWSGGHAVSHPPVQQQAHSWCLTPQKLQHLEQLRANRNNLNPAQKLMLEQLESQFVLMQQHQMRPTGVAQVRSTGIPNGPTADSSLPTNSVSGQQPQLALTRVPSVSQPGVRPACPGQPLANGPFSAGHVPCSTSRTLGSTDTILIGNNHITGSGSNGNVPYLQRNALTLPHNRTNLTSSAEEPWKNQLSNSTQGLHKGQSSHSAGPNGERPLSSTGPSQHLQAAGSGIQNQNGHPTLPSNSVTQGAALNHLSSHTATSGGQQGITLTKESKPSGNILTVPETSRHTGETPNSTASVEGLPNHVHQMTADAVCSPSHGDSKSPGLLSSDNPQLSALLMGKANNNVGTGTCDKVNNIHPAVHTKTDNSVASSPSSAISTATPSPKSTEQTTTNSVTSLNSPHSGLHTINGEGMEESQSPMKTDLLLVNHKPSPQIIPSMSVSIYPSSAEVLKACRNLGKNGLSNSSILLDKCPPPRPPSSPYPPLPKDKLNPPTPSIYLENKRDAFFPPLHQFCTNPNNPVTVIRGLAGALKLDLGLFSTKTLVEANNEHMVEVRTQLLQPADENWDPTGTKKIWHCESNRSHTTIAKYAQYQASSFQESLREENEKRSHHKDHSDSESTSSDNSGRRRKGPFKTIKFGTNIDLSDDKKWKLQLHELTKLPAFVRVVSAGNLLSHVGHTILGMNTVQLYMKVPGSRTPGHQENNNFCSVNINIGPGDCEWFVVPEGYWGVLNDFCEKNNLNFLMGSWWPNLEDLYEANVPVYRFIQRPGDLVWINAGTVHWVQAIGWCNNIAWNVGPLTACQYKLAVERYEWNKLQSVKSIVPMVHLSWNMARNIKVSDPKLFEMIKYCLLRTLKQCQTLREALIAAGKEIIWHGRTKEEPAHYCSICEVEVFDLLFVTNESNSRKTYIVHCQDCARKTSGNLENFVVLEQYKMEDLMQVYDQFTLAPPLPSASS
eGFP-KDM6A TPR: residues 1-390 of O15550
eGFP-KDM6A JmjC: residues 886-1401 of O15550
UniProt P06748: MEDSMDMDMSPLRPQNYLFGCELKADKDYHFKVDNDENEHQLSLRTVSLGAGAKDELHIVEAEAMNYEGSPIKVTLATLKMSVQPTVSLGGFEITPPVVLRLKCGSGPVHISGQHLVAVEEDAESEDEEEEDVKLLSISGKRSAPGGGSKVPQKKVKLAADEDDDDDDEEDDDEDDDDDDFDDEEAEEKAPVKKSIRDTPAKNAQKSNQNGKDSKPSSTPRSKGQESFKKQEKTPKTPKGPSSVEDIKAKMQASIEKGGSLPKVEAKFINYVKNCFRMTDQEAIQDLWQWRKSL
UniProt Q15291: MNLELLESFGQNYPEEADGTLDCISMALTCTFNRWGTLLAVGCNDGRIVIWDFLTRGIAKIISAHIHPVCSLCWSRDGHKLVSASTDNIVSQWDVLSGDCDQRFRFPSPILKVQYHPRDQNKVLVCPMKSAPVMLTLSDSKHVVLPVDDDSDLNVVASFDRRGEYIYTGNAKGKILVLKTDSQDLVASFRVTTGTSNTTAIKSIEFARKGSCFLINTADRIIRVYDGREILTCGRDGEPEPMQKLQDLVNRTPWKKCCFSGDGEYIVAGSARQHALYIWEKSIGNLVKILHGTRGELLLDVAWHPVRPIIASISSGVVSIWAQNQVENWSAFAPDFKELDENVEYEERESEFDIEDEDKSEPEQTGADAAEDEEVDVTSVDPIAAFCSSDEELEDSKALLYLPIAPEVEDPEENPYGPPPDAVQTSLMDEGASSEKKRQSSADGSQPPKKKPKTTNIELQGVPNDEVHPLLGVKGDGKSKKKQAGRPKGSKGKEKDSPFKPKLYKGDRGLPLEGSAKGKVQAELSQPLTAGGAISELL

Assays:
Test in all cases: co-IP; eGFP-KDM6A variants or eGFP captured on GFP-trap dynabeads from lysates of transiently transfected SW-1710 and T-24 cells (48 h post transfection), 1 h at 4 °C, SDS-free RIPA like buffer (50 mM Tris-HCl pH 7.5, 0.3% CHAPS, 150 mM sodium chloride), washed three times; Western blot for endogenous RBBP5, NPM1, WDR5
eGFP-KDM6A TPR (human) = eGFP-KDM6A TPR (human) (UniProt O15550)
eGFP-KDM6A D336G (human) = eGFP-KDM6A D336G (human) (UniProt O15550)
eGFP-KDM6A JmjC (human) = eGFP-KDM6A JmjC (human) (UniProt O15550)
eGFP-KDM6A T726K (human) = eGFP-KDM6A T726K (human) (UniProt O15550)
[1] = molecular target: eGFP-KDM6A wildtype (human) (UniProt O15550)

| binding (eGFP-KDM6A TPR (human)) | binding (eGFP-KDM6A D336G (human)) | binding (eGFP-KDM6A JmjC (human)) | binding (eGFP-KDM6A T726K (human)) | binding [1] | Substance |
| --- | --- | --- | --- | --- | --- |
| no binding | no binding | no binding | binds |  | Nucleophosmin (from UniProt P06748 1-294) |
| binds | binds | no binding | binds | binds | RBBP5 (from UniProt Q15291 1-538) |
